Test results: PMC2701997
These are yes or no findings as the source states them, for the method shown. Binding seen in cells or lysates may run through a third protein. A result given as binding can be weak or reduced; the word gives no strength.

Biological target: Lin-7 (human (endogenous in WM115 and HMEC-1))
Assay: co-IP; clarified lysates (1 mg/ml, 1% Triton lysis buffer) of WM115 and HMEC-1 cells; anti-AQP1, anti-Lin7 or anti-EphB2 overnight, protein A-Sepharose 90 min at 4°C; blots with anti-AQP-1 or anti-Lin7; all proteins endogenous

- binding: binds
B1: AQP1 (protein, UniProt P29972 1-269)
chain: MASEFKKKLFWRAVVAEFLATTLFVFISIGSALGFKYPVGNNQTAVQDNVKVSLAFGLSIATLAQSVGHISGAHLNPAVTLGLLLSCQISIFRALMYIIAQCVGAIVATAILSGITSSLTGNSLGRNDLADGVNSGQGLGIEIIGTLQLVLCVLATTDRRRRDLGGSAPLAIGLSVALGHLLAIDYTGCGINPARSFGSAVITHNFSNHWIFWVGPFIGGALAVLIYDFILAPRSSDLTDRVKVWTSGQVEEYDLDADDINSRVEMKPK
